Results: PubChem BioAssay AID1487 (National Center for Advancing Translational Sciences (NCATS), 2009)
The list shows a part of the results. Shown are side measurements of this screen, not its main read-out; they come without a call. The list favours compounds with an active or inconclusive main result. Potencies come from curve fits of mixed quality, noted in brackets.

Test: qHTS Assay for Modulators of Lamin A Splicing
Settings: HeLa LMNA splicing GFP/RFP minigene ratio, 48 h
In short: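 S3 HeLa stable clones carrying a lamin A-EGFP splicing minigene plus DsRed2 were seeded at 600 cells/well in Opti-MEM with 2% FBS, pin-dosed and incubated 48 h at 37°C. Acumen cytometry (488 nm) gave the GFP/RFP total-intensity ratio.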

[1] = measured here: GFP splicing reporter channel
[2] = measured here: RFP viability control channel

| Compound | AC50 [1] | AC50 [2] |
| --- | --- | --- |
| COC(=O)c1cn(CCOc2ccccc2F)c2ccccc12 | 35.5 µM [rising, single point] | 25.1 µM [rising, single point] |
| Cc1cc(C(=O)CSc2nnc(-c3cccc(F)c3)n2N)c(C)n1Cc1ccc2c(c1)OCO2 | 3.98 µM [rising, single point] | 14.1 µM [rising, single point] |
| Cc1ccc(NC(=O)Cc2c[nH]c3ccccc23)cc1S(=O)(=O)N1CCCCCC1 |  | 14.1 µM [rising, partial curve] |
| Cc1ccccc1C(=O)Nc1ccc(C(=O)N/N=C/c2ccc(O)c(Br)c2)cc1 | 4.47 µM [falling, partial curve, poor fit] | 1.41 µM [falling, full curve, poor fit] |
| Cc1cn2c(=O)cc(COC(=O)C(C)Oc3ccccc3)nc2s1 (centres undefined) |  | 0.0224 µM [falling, full curve, poor fit] |
| COP(=O)(CC(=O)c1ccccc1)CC(=O)c1ccccc1 |  | 0.00447 µM [rising, full curve, poor fit] |
| CC(CCc1ccccc1)NCC(O)c1ccc(O)c(C(N)=O)c1 (centres undefined) |  | 0.398 µM [falling, partial curve, poor fit] |
| COc1cccc(/C=C/C(=O)NCCc2ccc(OC)c(OC)c2)c1 | 3.16 µM [falling, partial curve] | 6.31 µM [falling, single point] |
| O=Cc1cc(N=Nc2ccccc2Cl)ccc1O | 1 µM [falling, partial curve] | 35.5 µM [rising, single point] |
| CCCCN=C1NN=C(c2cc3ccccc3o2)CS1 | 2.51 µM [rising, full curve, poor fit] | 5.01 µM [rising, partial curve] |
| CC(C)c1[nH]nc2c1C(C(C)C)C(C#N)=C(N)O2 (centres undefined) |  | 12.6 µM [rising, partial curve] |
| CCOC(=O)N/N=C/c1cn(CCCOc2ccccc2)c2ccccc12 |  | 25.1 µM [rising, single point] |
| O=C1CC(c2ccccc2)=Nc2ccc(Br)cc2N1 | 0.0158 µM [falling, full curve, poor fit] |  |
| COc1ccc(N2CC(NC(=O)c3ccc(S(=O)(=O)N4CCOCC4)cc3)CC2=O)cc1 (centres undefined) | 0.141 µM [falling, full curve] | 1.78 µM [falling, partial curve, poor fit] |
| CCN(CC)C(=O)C1CCCc2c1[nH]c1ccc(Cl)cc21 (centres undefined) |  | 5.01 µM [rising, full curve] |
| O=C(N/N=C/c1ccc([N+](=O)[O-])cc1)c1[nH]ncc1Br | 1.58 µM [falling, full curve, poor fit] |  |
| COCCn1c(=O)c(CCc2ccccc2)nc2cnc(Oc3ccccc3)nc21 | 14.1 µM [falling, partial curve] |  |

| Compound | AC50 [1] | AC50 [2] |
| --- | --- | --- |
| COc1ccccc1C1C(C#N)=C(N)Oc2c1c(-c1ccccc1)nn2-c1ccccc1 (centres undefined) |  | 25.1 µM [rising, partial curve] |
| CCc1cc2c(=O)c(-c3ccc4c(c3)OCCO4)coc2c(CN2CCCCC2C)c1O (centres undefined) | 6.31 µM [rising, single point] | 22.4 µM [falling, single point] |
| COc1ccc(/C=N/NC(=S)Nc2cc(S(=O)(=O)N3CCOCC3)ccc2N2CCOCC2)cc1O | 35.5 µM [rising, single point] |  |
| Cc1ccc(NS(=O)(=O)c2cc(C(=O)N3CCCC3)ccc2C)cc1C | 0.00501 µM [rising, full curve, poor fit] |  |
| Cc1ccc(-n2c3c(c(O)c(-c4ccccc4)c2=O)C(=O)CC(C)(C)C3)cc1 | 11.2 µM [rising, partial curve, poor fit] | 8.91 µM [rising, partial curve, poor fit] |
| CCc1cc2c(Sc3nc4ccccc4s3)ncnc2s1 | 11.2 µM [falling, partial curve] | 12.6 µM [falling, partial curve] |
| O=C(COc1ccc(S(=O)(=O)NC2CCCCC2)cc1Cl)N1CCN(c2ccccc2)CC1 |  | 14.1 µM [rising, single point] |
| COc1ccc(CCNC(=O)CCCn2c(=O)c3cccn3c3ccc(F)cc32)cc1OC | 1 µM [rising, partial curve, poor fit] | 8.91 µM [rising, partial curve] |
| CC(C(=O)NC1CCCC1)N(c1ccc(Oc2ccccc2)cc1)S(C)(=O)=O (centres undefined) | 35.5 µM [falling, single point] |  |
| Cc1[nH]nc(-c2ccc(O)cc2O)c1Oc1ccccc1 | 11.2 µM [falling, partial curve, poor fit] | 1 µM [falling, full curve] |
| CC(/C=C1\SC(=S)N(CCCC(=O)Nc2ccc(C(=O)O)cc2)C1=O)=C\c1ccccc1 | 35.5 µM [rising, single point] | 14.1 µM [rising, partial curve, poor fit] |
| CCc1cccc(CC)c1NC(=O)CSc1nc2ccc(N3C(=O)C4C5C=CC(C5)C4C3=O)cc2s1 (centres undefined) |  | 12.6 µM [rising, single point] |
| COc1ccc(C(=O)C2CCCN(Cc3ccc(C#CCCO)cc3)C2)c(OC)c1 (centres undefined) | 11.2 µM [falling, partial curve] | 10 µM [falling, partial curve] |
| Cc1ccccc1C(=O)NCc1ccc2c(c1)CCN2C(=O)c1ccc(F)cc1 | 17.8 µM [falling, single point] | 2.51 µM [falling, partial curve, poor fit] |
| COc1ccc(C(C)=O)cc1COC(=O)c1cc(C)nc2ccccc12 | 0.501 µM [rising, partial curve] | 1 µM [rising, single point] |
| CC(Nc1nc(N2CCNCC2)nc2ccccc12)c1ccccc1 (centres undefined) | 0.00501 µM [falling, full curve, poor fit] |  |

Molecules from the list above that contain a Cl atom (3):

| Compound | AC50 [1] | AC50 [2] |
| --- | --- | --- |
| O=Cc1cc(N=Nc2ccccc2Cl)ccc1O | 1 µM [falling, partial curve] | 35.5 µM [rising, single point] |
| CCN(CC)C(=O)C1CCCc2c1[nH]c1ccc(Cl)cc21 (centres undefined) |  | 5.01 µM [rising, full curve] |
| O=C(COc1ccc(S(=O)(=O)NC2CCCCC2)cc1Cl)N1CCN(c2ccccc2)CC1 |  | 14.1 µM [rising, single point] |
